Data taken from PMC7994790.
These are yes or no findings as the source states them, for the method shown. In cells and extracts the contact can be indirect. Some entries that bind do so weakly or less than the wild type. Sequences can lack the tags named with a protein.

T1: Flag-ETAA1 / HA-ETAA1 (UniProt Q9NY74)
T1 sequence: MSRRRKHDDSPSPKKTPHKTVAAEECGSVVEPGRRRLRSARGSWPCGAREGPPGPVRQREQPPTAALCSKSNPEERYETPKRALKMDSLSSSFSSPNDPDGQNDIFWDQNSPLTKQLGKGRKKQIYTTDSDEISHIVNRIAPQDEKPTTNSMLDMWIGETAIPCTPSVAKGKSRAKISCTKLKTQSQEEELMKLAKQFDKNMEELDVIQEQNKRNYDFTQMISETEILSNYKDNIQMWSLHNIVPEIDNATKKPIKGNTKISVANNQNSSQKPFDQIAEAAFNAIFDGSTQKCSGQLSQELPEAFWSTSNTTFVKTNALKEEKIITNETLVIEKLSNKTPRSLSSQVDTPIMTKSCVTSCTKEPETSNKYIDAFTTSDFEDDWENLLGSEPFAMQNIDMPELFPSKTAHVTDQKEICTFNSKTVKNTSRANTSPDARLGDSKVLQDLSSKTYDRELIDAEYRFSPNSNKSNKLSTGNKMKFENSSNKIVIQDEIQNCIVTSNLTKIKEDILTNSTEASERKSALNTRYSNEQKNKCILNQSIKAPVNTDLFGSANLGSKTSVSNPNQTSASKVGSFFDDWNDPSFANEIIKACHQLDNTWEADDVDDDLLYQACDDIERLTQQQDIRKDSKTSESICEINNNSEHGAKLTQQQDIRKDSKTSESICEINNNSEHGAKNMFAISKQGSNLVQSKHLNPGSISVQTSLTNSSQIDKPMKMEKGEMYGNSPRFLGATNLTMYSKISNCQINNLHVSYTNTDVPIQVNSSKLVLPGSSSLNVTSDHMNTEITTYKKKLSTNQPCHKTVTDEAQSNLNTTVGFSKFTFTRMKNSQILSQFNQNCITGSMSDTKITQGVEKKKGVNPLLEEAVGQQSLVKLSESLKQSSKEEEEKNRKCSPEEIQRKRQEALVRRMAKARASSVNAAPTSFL

B1: HA-ETAA1 571–926 (domain or fragment, UniProt Q9NY74 571-926)
chain: SKVGSFFDDWNDPSFANEIIKACHQLDNTWEADDVDDDLLYQACDDIERLTQQQDIRKDSKTSESICEINNNSEHGAKLTQQQDIRKDSKTSESICEINNNSEHGAKNMFAISKQGSNLVQSKHLNPGSISVQTSLTNSSQIDKPMKMEKGEMYGNSPRFLGATNLTMYSKISNCQINNLHVSYTNTDVPIQVNSSKLVLPGSSSLNVTSDHMNTEITTYKKKLSTNQPCHKTVTDEAQSNLNTTVGFSKFTFTRMKNSQILSQFNQNCITGSMSDTKITQGVEKKKGVNPLLEEAVGQQSLVKLSESLKQSSKEEEEKNRKCSPEEIQRKRQEALVRRMAKARASSVNAAPTSFL
B2: Flag-ETAA1 / HA-ETAA1 (protein, UniProt Q9NY74 1-926)
chain: T1 sequence
B3: HA-ETAA1 2–570 (domain or fragment, UniProt Q9NY74 2-570)
chain: SRRRKHDDSPSPKKTPHKTVAAEECGSVVEPGRRRLRSARGSWPCGAREGPPGPVRQREQPPTAALCSKSNPEERYETPKRALKMDSLSSSFSSPNDPDGQNDIFWDQNSPLTKQLGKGRKKQIYTTDSDEISHIVNRIAPQDEKPTTNSMLDMWIGETAIPCTPSVAKGKSRAKISCTKLKTQSQEEELMKLAKQFDKNMEELDVIQEQNKRNYDFTQMISETEILSNYKDNIQMWSLHNIVPEIDNATKKPIKGNTKISVANNQNSSQKPFDQIAEAAFNAIFDGSTQKCSGQLSQELPEAFWSTSNTTFVKTNALKEEKIITNETLVIEKLSNKTPRSLSSQVDTPIMTKSCVTSCTKEPETSNKYIDAFTTSDFEDDWENLLGSEPFAMQNIDMPELFPSKTAHVTDQKEICTFNSKTVKNTSRANTSPDARLGDSKVLQDLSSKTYDRELIDAEYRFSPNSNKSNKLSTGNKMKFENSSNKIVIQDEIQNCIVTSNLTKIKEDILTNSTEASERKSALNTRYSNEQKNKCILNQSIKAPVNTDLFGSANLGSKTSVSNPNQTSA
B4: HA-ETAA1 2–305 (domain or fragment, UniProt Q9NY74 2-305)
chain: SRRRKHDDSPSPKKTPHKTVAAEECGSVVEPGRRRLRSARGSWPCGAREGPPGPVRQREQPPTAALCSKSNPEERYETPKRALKMDSLSSSFSSPNDPDGQNDIFWDQNSPLTKQLGKGRKKQIYTTDSDEISHIVNRIAPQDEKPTTNSMLDMWIGETAIPCTPSVAKGKSRAKISCTKLKTQSQEEELMKLAKQFDKNMEELDVIQEQNKRNYDFTQMISETEILSNYKDNIQMWSLHNIVPEIDNATKKPIKGNTKISVANNQNSSQKPFDQIAEAAFNAIFDGSTQKCSGQLSQELPEAF

The binders below were run against T1, Flag-ETAA1 / HA-ETAA1 (assay: co-IP; HEK293T cells transfected; NP-40 lysis buffer (in some experiments 0.75% CHAPS); anti-Flag M2 affinity gel or anti-HA agarose, 1–2 h at 4 °C; immunoblot; no AP20187 system).

| Binder | binding |
| --- | --- |
| B1 | binds |
| B2 | binds |
| B3 | binds |
| B4 | no binding |
